Assay results taken from the supplement of paper PMC10849652.
This is one part of the list.

Protein sequences, listed by entry. Tags and fused reporters are not part of them. Lines headed by an entry give the natural chain unless they say otherwise; changes in a name come on top.
UniProt Q5VIR6: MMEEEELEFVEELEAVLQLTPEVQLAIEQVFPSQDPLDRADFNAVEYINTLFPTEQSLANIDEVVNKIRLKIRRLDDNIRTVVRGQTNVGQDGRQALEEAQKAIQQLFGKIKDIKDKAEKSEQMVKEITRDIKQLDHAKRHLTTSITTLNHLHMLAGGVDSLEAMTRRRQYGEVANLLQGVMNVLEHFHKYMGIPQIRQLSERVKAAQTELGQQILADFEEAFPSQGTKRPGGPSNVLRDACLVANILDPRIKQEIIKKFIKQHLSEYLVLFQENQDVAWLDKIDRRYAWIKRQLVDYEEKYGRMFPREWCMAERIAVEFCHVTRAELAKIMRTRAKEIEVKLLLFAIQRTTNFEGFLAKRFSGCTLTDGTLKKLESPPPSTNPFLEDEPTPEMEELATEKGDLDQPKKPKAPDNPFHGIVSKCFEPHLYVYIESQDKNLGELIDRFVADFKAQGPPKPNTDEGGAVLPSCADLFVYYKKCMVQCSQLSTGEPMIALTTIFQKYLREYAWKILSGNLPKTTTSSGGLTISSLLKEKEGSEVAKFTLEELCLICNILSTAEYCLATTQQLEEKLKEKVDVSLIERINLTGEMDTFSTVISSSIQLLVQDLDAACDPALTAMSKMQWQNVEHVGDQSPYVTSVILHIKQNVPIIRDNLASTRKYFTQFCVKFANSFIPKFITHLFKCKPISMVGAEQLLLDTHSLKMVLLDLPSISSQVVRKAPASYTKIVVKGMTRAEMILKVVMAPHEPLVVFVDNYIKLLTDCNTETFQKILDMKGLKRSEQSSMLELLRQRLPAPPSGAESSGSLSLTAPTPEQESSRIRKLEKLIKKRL
UniProt Q9H269: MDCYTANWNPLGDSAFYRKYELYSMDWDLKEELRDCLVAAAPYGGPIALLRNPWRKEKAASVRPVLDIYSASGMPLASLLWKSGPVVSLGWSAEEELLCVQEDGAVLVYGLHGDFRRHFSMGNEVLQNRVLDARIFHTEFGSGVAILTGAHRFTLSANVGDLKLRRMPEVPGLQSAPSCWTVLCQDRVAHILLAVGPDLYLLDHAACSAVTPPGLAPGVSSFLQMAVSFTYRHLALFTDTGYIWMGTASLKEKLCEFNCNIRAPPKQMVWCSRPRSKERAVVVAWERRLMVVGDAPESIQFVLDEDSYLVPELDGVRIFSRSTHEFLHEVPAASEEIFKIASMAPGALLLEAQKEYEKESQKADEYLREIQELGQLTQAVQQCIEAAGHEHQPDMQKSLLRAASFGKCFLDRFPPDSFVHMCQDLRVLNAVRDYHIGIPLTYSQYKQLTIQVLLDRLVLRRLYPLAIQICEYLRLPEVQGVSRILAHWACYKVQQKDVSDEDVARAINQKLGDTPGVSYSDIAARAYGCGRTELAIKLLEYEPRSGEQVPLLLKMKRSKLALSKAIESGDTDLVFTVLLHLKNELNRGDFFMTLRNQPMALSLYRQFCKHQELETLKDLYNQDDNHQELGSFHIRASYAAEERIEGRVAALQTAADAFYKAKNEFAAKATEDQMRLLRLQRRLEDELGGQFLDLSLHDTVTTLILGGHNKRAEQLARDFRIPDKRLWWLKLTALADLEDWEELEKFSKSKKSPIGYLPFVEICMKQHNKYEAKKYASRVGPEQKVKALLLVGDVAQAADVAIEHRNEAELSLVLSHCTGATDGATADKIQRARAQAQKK
UniProt Q7Z5K2: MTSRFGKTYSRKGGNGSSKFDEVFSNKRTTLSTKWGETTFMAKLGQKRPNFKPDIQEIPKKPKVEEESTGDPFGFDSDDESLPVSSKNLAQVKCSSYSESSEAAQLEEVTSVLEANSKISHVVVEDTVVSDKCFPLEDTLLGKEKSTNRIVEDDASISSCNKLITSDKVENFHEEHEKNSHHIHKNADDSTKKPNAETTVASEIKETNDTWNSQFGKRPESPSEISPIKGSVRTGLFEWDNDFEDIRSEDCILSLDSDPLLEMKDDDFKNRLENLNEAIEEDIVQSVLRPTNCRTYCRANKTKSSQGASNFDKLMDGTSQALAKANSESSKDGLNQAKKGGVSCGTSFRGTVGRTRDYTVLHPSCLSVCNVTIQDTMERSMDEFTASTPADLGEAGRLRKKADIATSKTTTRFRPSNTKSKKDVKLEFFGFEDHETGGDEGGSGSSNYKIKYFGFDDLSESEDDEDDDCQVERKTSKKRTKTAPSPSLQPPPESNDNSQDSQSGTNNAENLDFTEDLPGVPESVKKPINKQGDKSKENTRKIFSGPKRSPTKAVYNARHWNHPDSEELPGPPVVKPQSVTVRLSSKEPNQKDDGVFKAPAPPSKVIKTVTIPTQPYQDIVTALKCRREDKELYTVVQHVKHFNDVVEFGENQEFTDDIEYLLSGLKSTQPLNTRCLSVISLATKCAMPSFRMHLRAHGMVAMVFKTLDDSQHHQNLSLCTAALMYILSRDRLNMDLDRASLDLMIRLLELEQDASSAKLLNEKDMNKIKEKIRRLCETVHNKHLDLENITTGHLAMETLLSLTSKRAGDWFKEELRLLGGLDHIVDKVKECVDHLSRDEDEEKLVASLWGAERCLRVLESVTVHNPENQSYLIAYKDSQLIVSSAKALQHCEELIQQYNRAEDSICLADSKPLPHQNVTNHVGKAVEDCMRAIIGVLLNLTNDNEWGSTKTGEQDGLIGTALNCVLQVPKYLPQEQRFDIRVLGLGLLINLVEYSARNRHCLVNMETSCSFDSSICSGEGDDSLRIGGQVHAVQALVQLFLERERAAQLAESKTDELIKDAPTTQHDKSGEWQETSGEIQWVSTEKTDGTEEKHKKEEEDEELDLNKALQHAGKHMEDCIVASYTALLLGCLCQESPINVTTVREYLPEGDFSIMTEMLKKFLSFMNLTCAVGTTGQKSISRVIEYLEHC
UniProt Q9P253: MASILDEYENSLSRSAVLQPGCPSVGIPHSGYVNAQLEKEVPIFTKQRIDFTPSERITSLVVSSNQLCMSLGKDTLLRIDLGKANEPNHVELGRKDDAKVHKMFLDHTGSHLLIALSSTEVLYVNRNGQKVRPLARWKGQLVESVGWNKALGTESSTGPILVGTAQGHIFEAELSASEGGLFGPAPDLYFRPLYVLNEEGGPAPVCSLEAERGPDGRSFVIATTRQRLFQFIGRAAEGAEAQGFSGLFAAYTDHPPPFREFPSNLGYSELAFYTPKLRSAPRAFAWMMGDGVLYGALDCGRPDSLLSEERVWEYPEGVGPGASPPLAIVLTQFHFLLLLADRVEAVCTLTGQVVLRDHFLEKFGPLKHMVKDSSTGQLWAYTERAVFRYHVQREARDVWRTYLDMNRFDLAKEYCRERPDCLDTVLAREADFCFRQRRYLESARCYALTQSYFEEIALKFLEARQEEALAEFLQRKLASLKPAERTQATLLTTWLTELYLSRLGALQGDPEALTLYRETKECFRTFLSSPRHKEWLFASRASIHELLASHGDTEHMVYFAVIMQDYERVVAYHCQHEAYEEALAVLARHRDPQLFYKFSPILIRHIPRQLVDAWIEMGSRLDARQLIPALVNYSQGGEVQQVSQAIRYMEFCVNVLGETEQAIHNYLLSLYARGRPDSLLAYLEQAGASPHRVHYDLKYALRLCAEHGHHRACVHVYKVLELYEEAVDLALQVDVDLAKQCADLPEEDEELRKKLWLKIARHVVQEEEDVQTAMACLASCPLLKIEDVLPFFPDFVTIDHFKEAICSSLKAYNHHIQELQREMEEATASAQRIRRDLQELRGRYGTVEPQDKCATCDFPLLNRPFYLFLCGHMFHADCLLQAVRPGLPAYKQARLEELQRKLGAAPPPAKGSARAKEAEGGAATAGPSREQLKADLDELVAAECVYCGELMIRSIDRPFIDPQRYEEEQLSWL
UniProt Q9H270: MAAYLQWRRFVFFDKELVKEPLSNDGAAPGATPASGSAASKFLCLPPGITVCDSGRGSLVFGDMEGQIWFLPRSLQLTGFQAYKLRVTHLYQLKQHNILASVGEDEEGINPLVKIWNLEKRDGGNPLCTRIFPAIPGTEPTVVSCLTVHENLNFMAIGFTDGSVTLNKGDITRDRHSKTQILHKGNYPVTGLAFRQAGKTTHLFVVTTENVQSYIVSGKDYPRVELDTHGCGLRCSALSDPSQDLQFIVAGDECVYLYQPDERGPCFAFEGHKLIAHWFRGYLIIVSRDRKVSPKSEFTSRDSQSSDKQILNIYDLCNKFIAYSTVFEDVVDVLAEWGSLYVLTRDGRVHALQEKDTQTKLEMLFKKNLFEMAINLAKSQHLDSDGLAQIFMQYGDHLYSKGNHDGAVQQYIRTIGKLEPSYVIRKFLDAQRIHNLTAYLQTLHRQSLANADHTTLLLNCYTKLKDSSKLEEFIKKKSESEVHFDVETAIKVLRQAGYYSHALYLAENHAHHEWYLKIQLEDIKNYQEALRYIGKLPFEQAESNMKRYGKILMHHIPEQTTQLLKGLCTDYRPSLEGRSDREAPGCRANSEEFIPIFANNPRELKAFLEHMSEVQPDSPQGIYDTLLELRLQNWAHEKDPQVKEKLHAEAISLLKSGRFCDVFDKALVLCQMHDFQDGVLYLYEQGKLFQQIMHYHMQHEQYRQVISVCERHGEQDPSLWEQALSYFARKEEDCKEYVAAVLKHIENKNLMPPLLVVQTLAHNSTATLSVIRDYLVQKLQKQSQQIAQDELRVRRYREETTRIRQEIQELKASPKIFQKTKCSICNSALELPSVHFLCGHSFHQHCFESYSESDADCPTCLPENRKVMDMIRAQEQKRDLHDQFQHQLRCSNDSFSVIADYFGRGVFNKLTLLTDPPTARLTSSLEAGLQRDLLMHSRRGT
UniProt Q86Y07: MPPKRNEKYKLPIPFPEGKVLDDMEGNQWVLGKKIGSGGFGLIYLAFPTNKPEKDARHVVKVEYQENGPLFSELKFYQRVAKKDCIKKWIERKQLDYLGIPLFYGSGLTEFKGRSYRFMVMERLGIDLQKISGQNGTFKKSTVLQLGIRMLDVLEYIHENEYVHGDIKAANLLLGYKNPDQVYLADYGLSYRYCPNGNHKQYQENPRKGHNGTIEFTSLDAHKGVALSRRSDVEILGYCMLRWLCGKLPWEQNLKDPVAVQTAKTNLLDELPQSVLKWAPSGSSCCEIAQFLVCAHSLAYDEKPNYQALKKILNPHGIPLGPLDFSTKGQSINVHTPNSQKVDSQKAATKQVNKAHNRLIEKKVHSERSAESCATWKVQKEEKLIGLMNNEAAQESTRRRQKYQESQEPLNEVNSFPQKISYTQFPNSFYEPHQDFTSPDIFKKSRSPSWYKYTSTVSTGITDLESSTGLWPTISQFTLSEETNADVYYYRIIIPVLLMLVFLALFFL
UniProt Q96JC1: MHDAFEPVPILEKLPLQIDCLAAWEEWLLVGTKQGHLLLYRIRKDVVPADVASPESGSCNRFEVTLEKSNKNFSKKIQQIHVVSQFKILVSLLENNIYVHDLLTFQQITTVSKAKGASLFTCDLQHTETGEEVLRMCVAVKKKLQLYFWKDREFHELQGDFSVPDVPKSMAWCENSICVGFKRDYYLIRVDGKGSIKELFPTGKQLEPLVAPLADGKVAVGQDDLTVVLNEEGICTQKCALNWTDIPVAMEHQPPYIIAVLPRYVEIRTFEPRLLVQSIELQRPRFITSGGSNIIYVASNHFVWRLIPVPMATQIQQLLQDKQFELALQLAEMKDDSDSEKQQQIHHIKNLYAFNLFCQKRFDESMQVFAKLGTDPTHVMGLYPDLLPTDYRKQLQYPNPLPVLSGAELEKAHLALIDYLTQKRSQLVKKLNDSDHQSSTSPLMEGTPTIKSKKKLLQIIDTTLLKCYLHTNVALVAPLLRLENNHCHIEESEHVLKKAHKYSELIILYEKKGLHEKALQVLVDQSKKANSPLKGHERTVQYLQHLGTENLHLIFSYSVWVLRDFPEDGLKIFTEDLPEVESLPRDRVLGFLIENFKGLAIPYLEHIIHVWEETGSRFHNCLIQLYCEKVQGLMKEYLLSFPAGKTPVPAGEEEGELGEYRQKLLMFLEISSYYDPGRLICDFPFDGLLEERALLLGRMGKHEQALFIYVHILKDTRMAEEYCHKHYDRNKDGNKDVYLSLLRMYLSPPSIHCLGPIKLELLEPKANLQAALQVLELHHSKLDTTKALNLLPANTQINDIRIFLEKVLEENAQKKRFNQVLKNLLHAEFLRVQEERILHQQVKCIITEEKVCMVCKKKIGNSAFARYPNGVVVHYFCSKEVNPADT
UniProt Q9UGM6: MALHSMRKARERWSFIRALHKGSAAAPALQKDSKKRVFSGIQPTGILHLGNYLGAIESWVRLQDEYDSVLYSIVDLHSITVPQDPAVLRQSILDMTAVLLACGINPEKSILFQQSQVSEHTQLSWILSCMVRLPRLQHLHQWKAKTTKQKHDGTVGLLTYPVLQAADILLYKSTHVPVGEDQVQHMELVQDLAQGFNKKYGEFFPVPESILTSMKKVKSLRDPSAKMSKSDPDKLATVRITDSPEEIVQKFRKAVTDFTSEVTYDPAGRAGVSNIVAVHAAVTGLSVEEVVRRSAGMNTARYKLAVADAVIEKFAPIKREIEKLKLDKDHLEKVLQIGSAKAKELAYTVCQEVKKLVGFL

Assays:
Assay in all cases: log2 fold change, soluble protein after heating vs DMSO (PISA); higher = thermal stabilisation; K562 cells, 10 uM, 30 min; active = over 0.2 and 3.5 SD of the protein, either way, in both replicates (recomputed)
[1] = compound: CS(=O)(=O)c1ccc(-c2cnc(N)c(C(=O)Nc3ccccc3)n2)cc1
Method in brief: (§1)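 Soluble protein was defined as the supernatant after 21,000xg for 90 min. It came from K562 cells at 2×10^6 cells/mL given 10 μM compound for 30 min, heated in aliquots for 3 min across 48°C-58°C, pooled, and extracted in PBS with 0.5% NP-40 at 4°C, and was quantified by TMTpro 16plex LC-MS/MS with equalised channel sums. Thermal stability against control samples, from duplicates, is reported as log2 fold change.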

[2] = compound: C[C@@H](Oc1cc(-c2cnn(C3CCNCC3)c2)cnc1N)c1c(Cl)ccc(F)c1Cl [crizotinib]
Method in brief: as §1

[3] = compound: C[C@@H]1COCCN1C2=NC(=NC(=C2)C3(CC3)S(=O)(=O)C)C4=C5C=CNC5=CC=C4
Method in brief: as §1

[4] = compound: C[C@H](C1=CC=C(C=C1)C(=O)NC2=C3C=CNC3=NC=C2)N
Method in brief: as §1

[5] = compound: C[C@H](Nc1ncnc2nc[nH]c12)c1cc2cccc(Cl)c2c(=O)n1-c1ccccc1 [duvelisib]
Method in brief: as §1

[6] = compound: Cc1cc(Nc2cc(CN3CCOCC3)c3nc(C)c(Cc4ccc(Cl)cc4F)n3n2)n[nH]1 [gandotinib]
Method in brief: as §1

[7] = compound: Cc1cc(Nc2cc(N3CCN(C)CC3)nc(Sc3ccc(NC(=O)C4CC4)cc3)n2)n[nH]1 [tozasertib]
Method in brief: as §1

[8] = compound: Cc1cc(SCc2sc(-c3ccc(C(F)(F)F)cc3)nc2C)ccc1OCC(=O)O
Method in brief: as §1

[9] = compound: Cc1ccc(-n2nc(C(C)(C)C)cc2NC(=O)Nc2ccc(OCCN3CCOCC3)c3ccccc23)cc1 [doramapimod]
Method in brief: as §1

[10] = compound: Cc1ccc(C(=O)N(CCCN)[C@@H](c2nc3cc(Cl)ccc3c(=O)n2Cc2ccccc2)C(C)C)cc1 [ispinesib]
Method in brief: as §1

[11] = compound: Cc1ccc(NC(=O)c2ccc(CN3CC[C@H](N(C)C)C3)c(C(F)(F)F)c2)cc1Nc1nccc(-c2cncnc2)n1 [bafetinib]
Method in brief: as §1

[12] = compound: Cc1cccc(CC(=O)N2CCc3c2ccc(-c2cn(C)c4ncnc(N)c24)c3F)n1
Method in brief: as §1

[13] = compound: Cc1cn(-c2cc(NC(=O)c3ccc(C)c(Nc4nccc(-c5cccnc5)n4)c3)cc(C(F)(F)F)c2)cn1 [nilotinib]
Method in brief: as §1

[14] = compound: Cc1nc(Nc2n[nH]c3c2CN(C(=O)N[C@H](CN(C)C)c2ccccc2)C3(C)C)c2sccc2n1
Method in brief: as §1

[15] = compound: Cc1nc(Nc2ncc(C(=O)Nc3c(C)cccc3Cl)s2)cc(N2CCN(CCO)CC2)n1 [dasatinib]
Method in brief: as §1

[16] = compound: Cc1ncc(-c2ccnc(Nc3ccc(S(C)(=O)=O)cc3)n2)n1C(C)C
Method in brief: as §1

[17] = compound: Cn1cc(-c2ccc3c(c2)CCN3C(=O)Cc2cccc(C(F)(F)F)c2)c2c(N)ncnc21
Method in brief: as §1

[18] = compound: Cn1cc(-c2ccc3nnc(C(F)(F)c4ccc5ncccc5c4)n3n2)cn1
Method in brief: as §1

[19] = compound: Cn1cncc1[C@@](N)(c1ccc(Cl)cc1)c1ccc2c(c1)c(-c1cccc(Cl)c1)cc(=O)n2C [tipifarnib]
Method in brief: as §1

[20] = compound: FC(F)(F)c1ccc(/C=C/c2nc(COc3ccc(CCCCn4ccnn4)cc3)co2)cc1 [mubritinib]
Method in brief: as §1

Measured: log2 fold change

VEZT (UniProt Q9HBM0)
inactive: [1] -0.015 | [2] 0.03 | [3] 0.159 | [4] -0.046 | [5] -0.041 | [6] -0.077 | [7] -0.077 | [8] 0.068 | [9] 0.05 | [10] -0.225 | [11] -0.188 | [12] 0.035 | [13] -0.061 | [14] -0.013 | [15] -0.096 | [16] 0.009 | [17] -0.039 | [18] 0.312 | [19] -0.043 | [20] 0.053

VPS53 isoform 4 (UniProt Q5VIR6)
inactive: [1] 0.087 | [2] -0.095 | [3] -0.004 | [4] 0.006 | [6] 0 | [8] 0.059 | [9] 0.036 | [10] -0.113 | [11] -0.04 | [12] 0.036 | [13] -0.1 | [14] -0.148 | [15] -0.087 | [16] 0.037 | [17] -0.035 | [18] -0.027 | [19] -0.061 | [20] 0.003

WDR12 (UniProt Q9GZL7)
inactive: [1] 0 | [2] 0.079 | [3] 0.039 | [4] -0.026 | [5] 0.065 | [6] -0.016 | [7] -0.014 | [8] 0.005 | [9] -0.019 | [10] 0.032 | [11] -0.048 | [12] -0.033 | [13] -0.009 | [14] 0 | [15] 0.036 | [16] -0.031 | [17] 0.011 | [18] -0.03 | [19] -0.01 | [20] -0.009

WDHD1 (UniProt O75717)
inactive: [1] 0.038 | [2] 0.021 | [3] 0.098 | [4] -0.025 | [6] -0.029 | [8] 0.109 | [9] -0.093 | [10] 0.042 | [11] -0.009 | [12] 0.008 | [13] -0.005 | [14] -0.12 | [15] -0.076 | [16] -0.021 | [17] 0.03 | [18] 0.022 | [19] -0.041 | [20] 0.067

VTI1B (UniProt Q9UEU0)
active: [10] -0.41
inactive: [1] 0.022 | [2] -0.089 | [3] 0.025 | [4] 0.032 | [6] 0.039 | [8] -0.077 | [9] 0.084 | [11] -0.064 | [12] -0.177 | [13] 0.013 | [14] 0.015 | [15] -0.011 | [16] 0.027 | [17] 0 | [18] 0.037 | [19] 0.085 | [20] -0.055

VPS16 (UniProt Q9H269)
inactive: [1] 0.035 | [2] -0.105 | [3] -0.09 | [4] 0.08 | [6] -0.163 | [8] 0.092 | [9] 0.085 | [10] -0.239 | [11] 0.041 | [12] 0.178 | [13] -0.038 | [14] -0.071 | [15] -0.14 | [16] -0.022 | [17] -0.039 | [18] 0.04 | [19] -0.078 | [20] 0.083

VPS37A (UniProt Q8NEZ2)
inactive: [1] 0.035 | [2] -0.146 | [3] 0.092 | [4] -0.084 | [6] -0.292 | [8] 0.206 | [9] -0.017 | [10] 0 | [11] -0.065 | [12] -0.06 | [13] -0.134 | [14] -0.27 | [15] -0.168 | [16] -0.039 | [17] 0.048 | [18] 0.014 | [19] -0.112 | [20] -0.038

Quoted from the results shown (2 entries):
VTI1B (UniProt Q9UEU0)
active: [10] -0.41
inactive: [1] 0.022 | [2] -0.089 | [3] 0.025 | [4] 0.032 | [6] 0.039 | [8] -0.077 | [9] 0.084 | [11] -0.064 | [12] -0.177 | [13] 0.013 | [14] 0.015 | [15] -0.011 | [16] 0.027 | [17] 0 | [18] 0.037 | [19] 0.085 | [20] -0.055

VPS16 (UniProt Q9H269)
inactive: [1] 0.035 | [2] -0.105 | [3] -0.09 | [4] 0.08 | [6] -0.163 | [8] 0.092 | [9] 0.085 | [10] -0.239 | [11] 0.041 | [12] 0.178 | [13] -0.038 | [14] -0.071 | [15] -0.14 | [16] -0.022 | [17] -0.039 | [18] 0.04 | [19] -0.078 | [20] 0.083

Going on with the list:

VPS33B (UniProt Q9H267)
inactive: [1] 0.05 | [2] -0.182 | [3] -0.022 | [4] 0.063 | [6] -0.114 | [8] 0.085 | [9] -0.01 | [10] -0.149 | [11] 0.01 | [12] 0.04 | [13] -0.056 | [14] -0.158 | [15] -0.209 | [16] 0.099 | [17] 0.017 | [18] -0.069 | [19] -0.107 | [20] 0.054

WAPL isoform 3 (UniProt Q7Z5K2)
inactive: [1] 0.052 | [2] -0.23 | [3] 0.18 | [4] -0.142 | [6] -0.199 | [8] -0.006 | [9] 0.017 | [10] -0.026 | [11] 0 | [12] -0.044 | [13] -0.011 | [14] 0.01 | [15] -0.081 | [16] -0.03 | [17] 0.04 | [18] 0.096 | [19] -0.218 | [20] 0.156

VPS35L (UniProt Q7Z3J2)
inactive: [1] 0.054 | [2] -0.128 | [3] -0.043 | [4] 0.186 | [6] 0 | [8] 0.023 | [9] 0.02 | [10] -0.11 | [11] 0.006 | [12] -0.008 | [13] -0.201 | [14] 0.101 | [15] -0.056 | [16] -0.123 | [17] -0.152 | [18] 0.009 | [19] -0.002 | [20] 0.02

WASH2P (UniProt Q6VEQ5)
inactive: [1] -0.002 | [3] -0.017 | [4] 0.021 | [6] -0.03 | [8] -0.038 | [9] 0.041 | [11] -0.06 | [12] 0.017 | [13] -0.069 | [14] -0.019 | [15] 0.03 | [16] 0.01 | [17] -0.008 | [18] 0.011 | [19] 0.043 | [20] 0.06
active: [2] -0.321 | [10] -0.358

VPS18 (UniProt Q9P253)
inactive: [1] -0.008 | [2] -0.21 | [3] -0.013 | [4] 0.05 | [6] -0.041 | [8] 0.063 | [9] -0.014 | [10] -0.203 | [11] -0.097 | [12] 0.059 | [13] -0.052 | [14] -0.069 | [15] -0.194 | [16] -0.022 | [17] 0.086 | [18] 0.089 | [19] -0.047 | [20] 0.088

VPS11 (UniProt Q9H270)
active: [2] -0.373
inactive: [1] 0.009 | [3] -0.039 | [4] 0.054 | [6] -0.111 | [8] 0.095 | [9] -0.029 | [10] -0.226 | [11] -0.033 | [12] 0.006 | [13] -0.048 | [14] -0.006 | [15] -0.154 | [16] 0.005 | [17] -0.016 | [18] -0.004 | [19] -0.093 | [20] 0.027

VWA8 (UniProt A3KMH1)
active: [20] -0.255
inactive: [1] 0.01 | [2] -0.058 | [3] 0.093 | [4] 0.025 | [6] -0.038 | [8] 0.094 | [9] -0.041 | [10] -0.221 | [11] -0.113 | [12] -0.001 | [13] -0.099 | [14] -0.018 | [15] -0.158 | [16] -0.016 | [17] -0.057 | [18] 0.067 | [19] 0.036

VRK2 (UniProt Q86Y07)
active: [4] 0.472 | [14] 0.414
inactive: [1] 0.048 | [2] -0.16 | [3] 0.015 | [6] -0.08 | [8] 0.012 | [9] 0.026 | [10] -0.115 | [11] 0.033 | [12] 0.081 | [13] -0.062 | [15] 0.011 | [16] 0.033 | [17] 0.129 | [18] -0.066 | [19] -0.057 | [20] 0.006

VPS39 (UniProt Q96JC1)
inactive: [1] -0.037 | [3] 0.026 | [4] 0.021 | [6] -0.126 | [8] 0.025 | [9] 0.008 | [10] -0.187 | [11] -0.032 | [12] 0.069 | [13] -0.019 | [14] -0.068 | [15] -0.15 | [16] -0.017 | [17] 0.033 | [18] 0.003 | [19] -0.058 | [20] 0.027
active: [2] -0.239

WARS2 (UniProt Q9UGM6)
inactive: [1] -0.062 | [2] 0.09 | [3] 0.065 | [4] 0.027 | [6] 0.006 | [8] 0.04 | [9] 0.017 | [10] -0.085 | [11] -0.183 | [12] 0.016 | [13] -0.086 | [14] -0.008 | [15] -0.147 | [16] 0.047 | [17] 0.022 | [18] -0.056 | [19] -0.046
active: [20] -0.569
